Results: the supplement of paper PMC10849652
The list shows a part of the results.

Amino acid sequences for entries named in this document (tags omitted). A change or cut given only in a name is not applied to a line headed by its entry.
UniProt Q5T4D3: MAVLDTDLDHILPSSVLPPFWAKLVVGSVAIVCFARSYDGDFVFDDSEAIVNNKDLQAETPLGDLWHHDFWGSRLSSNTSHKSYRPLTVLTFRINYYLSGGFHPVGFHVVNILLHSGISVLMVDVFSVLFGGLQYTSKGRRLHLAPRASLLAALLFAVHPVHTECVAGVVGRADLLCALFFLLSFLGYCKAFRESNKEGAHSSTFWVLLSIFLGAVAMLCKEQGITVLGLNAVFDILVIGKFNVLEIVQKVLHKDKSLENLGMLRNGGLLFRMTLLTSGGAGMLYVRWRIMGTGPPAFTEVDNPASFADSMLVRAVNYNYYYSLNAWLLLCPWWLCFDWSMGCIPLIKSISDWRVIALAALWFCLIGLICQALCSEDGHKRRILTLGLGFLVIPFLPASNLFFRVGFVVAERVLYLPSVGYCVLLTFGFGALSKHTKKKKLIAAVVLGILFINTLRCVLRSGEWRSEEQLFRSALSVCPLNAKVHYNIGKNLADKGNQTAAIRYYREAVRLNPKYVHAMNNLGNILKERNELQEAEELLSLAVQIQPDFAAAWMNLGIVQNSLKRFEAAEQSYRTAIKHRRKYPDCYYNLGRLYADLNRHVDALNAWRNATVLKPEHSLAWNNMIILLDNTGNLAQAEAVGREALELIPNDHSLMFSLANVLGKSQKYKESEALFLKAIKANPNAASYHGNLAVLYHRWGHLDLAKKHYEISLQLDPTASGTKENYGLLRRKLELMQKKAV
UniProt Q9H6X4: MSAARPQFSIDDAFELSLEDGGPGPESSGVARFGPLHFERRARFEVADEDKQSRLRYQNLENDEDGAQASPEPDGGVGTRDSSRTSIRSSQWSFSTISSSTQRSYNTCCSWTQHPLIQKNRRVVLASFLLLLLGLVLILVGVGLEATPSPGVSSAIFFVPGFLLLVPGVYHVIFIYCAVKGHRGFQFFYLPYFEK
UniProt Q4ZIN3: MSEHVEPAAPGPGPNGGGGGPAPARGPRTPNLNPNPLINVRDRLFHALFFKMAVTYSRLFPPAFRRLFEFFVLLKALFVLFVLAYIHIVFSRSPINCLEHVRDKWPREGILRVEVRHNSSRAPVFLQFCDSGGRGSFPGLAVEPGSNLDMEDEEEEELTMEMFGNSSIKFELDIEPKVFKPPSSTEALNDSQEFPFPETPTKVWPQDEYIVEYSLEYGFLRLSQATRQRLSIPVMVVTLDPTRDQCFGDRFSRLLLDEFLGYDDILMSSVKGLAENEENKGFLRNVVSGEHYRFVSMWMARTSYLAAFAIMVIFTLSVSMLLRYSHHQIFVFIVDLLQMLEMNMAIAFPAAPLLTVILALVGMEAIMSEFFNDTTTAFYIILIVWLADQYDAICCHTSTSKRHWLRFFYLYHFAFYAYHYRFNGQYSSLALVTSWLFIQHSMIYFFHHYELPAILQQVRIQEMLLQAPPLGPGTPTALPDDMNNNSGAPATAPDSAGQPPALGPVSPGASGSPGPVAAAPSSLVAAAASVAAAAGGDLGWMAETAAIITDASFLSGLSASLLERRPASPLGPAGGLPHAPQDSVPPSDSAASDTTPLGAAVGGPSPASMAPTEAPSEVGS
UniProt Q9Y490: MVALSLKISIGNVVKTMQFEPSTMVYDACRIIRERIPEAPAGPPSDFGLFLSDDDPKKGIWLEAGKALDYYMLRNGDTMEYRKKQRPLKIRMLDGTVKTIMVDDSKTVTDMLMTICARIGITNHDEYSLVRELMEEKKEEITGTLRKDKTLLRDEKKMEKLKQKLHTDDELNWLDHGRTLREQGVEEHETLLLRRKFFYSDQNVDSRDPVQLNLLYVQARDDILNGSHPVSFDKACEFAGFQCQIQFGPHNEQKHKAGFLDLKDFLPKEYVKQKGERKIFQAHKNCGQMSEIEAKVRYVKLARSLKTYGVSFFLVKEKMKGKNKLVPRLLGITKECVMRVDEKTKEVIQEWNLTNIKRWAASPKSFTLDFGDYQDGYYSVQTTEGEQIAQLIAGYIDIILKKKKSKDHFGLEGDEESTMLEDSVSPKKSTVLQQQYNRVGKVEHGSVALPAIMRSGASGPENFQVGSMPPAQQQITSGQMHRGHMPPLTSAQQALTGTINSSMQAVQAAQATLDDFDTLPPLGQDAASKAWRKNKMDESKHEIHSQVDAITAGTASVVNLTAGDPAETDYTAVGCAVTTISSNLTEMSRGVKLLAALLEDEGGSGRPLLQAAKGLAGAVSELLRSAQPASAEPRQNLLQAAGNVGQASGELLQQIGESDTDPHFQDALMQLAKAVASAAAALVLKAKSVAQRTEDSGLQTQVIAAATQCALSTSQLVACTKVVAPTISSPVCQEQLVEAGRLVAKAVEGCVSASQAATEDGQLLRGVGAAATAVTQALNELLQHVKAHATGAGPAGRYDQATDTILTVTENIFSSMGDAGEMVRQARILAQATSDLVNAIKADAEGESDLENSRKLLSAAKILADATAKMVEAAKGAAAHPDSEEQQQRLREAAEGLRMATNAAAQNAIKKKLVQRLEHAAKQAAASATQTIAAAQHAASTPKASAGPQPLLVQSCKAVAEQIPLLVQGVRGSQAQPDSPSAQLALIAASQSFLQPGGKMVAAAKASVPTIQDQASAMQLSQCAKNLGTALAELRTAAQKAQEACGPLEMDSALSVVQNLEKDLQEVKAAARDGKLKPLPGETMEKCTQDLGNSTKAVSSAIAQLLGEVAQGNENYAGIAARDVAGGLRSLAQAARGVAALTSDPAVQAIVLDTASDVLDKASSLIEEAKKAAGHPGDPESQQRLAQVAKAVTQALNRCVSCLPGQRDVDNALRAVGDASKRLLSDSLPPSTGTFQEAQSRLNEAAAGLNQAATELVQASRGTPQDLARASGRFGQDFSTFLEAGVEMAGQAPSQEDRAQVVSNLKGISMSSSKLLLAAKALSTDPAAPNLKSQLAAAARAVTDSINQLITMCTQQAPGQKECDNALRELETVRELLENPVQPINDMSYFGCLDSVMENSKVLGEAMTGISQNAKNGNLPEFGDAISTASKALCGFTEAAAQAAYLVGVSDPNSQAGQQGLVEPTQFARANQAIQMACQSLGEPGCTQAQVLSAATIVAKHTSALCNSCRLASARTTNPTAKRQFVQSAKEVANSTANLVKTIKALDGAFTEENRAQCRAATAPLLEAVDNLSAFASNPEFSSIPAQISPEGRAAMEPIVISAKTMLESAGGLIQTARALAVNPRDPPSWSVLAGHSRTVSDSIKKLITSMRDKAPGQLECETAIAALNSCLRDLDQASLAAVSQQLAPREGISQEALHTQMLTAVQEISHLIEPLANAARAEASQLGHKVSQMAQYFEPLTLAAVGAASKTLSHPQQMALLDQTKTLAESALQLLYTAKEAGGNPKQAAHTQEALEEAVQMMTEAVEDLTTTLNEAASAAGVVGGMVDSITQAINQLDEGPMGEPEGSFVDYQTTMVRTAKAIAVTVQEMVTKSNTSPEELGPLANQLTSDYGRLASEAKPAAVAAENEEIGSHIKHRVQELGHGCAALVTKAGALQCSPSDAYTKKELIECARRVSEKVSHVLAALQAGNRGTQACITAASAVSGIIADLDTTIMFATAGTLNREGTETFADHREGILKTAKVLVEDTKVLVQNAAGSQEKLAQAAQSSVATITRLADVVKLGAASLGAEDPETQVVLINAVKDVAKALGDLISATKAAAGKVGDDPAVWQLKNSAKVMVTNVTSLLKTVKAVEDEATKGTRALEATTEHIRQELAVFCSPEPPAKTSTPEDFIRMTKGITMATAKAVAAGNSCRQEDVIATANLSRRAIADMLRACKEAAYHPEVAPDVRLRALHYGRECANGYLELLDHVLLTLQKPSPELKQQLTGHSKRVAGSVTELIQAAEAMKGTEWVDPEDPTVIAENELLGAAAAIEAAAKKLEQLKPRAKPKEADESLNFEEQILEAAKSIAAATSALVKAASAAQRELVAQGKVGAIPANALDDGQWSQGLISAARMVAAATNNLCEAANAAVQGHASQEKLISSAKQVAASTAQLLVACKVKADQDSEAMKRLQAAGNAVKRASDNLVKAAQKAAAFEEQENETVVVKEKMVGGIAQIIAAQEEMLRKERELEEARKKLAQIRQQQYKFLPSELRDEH
UniProt Q5U3C3: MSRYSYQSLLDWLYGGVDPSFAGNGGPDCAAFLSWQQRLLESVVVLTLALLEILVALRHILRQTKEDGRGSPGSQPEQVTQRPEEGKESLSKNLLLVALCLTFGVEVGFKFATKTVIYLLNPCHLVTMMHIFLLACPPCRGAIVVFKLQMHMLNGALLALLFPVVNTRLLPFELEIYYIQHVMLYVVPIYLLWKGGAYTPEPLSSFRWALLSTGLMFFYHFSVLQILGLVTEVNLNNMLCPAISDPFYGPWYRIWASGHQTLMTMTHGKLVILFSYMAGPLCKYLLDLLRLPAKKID
UniProt Q9BTV4: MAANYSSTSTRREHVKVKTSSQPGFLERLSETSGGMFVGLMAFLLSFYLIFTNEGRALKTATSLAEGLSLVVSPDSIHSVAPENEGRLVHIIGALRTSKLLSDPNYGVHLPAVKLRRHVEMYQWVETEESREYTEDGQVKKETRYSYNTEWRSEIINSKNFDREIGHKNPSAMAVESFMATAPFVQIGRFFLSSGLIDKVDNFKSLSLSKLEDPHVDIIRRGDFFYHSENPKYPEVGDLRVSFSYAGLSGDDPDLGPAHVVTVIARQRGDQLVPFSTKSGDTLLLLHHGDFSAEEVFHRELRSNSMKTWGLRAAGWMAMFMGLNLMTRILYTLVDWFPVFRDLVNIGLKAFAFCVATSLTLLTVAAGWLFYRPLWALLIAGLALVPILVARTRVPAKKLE
UniProt Q9BVK8: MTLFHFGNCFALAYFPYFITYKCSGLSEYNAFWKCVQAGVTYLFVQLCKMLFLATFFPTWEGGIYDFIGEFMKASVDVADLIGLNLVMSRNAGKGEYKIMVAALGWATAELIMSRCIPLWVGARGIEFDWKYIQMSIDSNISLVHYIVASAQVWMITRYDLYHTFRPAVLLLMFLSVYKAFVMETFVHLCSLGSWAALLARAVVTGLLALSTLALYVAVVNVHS
UniProt Q9NUM4, whole entry, looked up: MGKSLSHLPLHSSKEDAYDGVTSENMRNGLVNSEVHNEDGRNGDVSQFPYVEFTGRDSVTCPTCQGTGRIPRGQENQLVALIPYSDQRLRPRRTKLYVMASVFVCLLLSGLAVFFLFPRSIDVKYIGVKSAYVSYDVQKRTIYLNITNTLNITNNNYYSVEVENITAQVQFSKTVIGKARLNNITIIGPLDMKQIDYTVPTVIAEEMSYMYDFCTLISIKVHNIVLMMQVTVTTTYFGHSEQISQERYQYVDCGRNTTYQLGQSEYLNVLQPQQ
UniProt P63313: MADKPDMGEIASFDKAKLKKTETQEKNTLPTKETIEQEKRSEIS
UniProt Q9BTX3: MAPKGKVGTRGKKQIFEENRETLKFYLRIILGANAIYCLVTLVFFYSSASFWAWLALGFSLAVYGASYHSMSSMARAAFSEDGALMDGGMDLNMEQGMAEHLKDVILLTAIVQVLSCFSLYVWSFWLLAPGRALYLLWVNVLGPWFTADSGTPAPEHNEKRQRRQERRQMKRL
UniProt Q9Y3Q3: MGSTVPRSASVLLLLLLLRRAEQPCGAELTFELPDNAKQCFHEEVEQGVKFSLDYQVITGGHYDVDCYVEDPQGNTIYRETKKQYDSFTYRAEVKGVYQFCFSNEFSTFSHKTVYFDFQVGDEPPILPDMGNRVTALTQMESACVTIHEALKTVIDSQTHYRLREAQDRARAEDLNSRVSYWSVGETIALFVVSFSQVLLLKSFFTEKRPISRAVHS
UniProt P57088: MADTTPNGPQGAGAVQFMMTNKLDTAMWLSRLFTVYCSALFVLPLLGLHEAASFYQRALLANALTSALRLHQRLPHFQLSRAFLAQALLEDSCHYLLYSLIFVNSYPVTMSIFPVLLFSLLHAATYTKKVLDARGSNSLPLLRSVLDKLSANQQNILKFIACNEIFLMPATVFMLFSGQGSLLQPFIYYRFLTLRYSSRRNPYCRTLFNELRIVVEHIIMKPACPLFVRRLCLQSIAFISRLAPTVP
UniProt P17152: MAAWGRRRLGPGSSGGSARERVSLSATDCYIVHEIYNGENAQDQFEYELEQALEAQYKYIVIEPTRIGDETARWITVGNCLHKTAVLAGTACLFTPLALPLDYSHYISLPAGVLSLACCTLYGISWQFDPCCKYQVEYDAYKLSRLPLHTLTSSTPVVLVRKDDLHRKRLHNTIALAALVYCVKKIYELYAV
UniProt Q9BVK6: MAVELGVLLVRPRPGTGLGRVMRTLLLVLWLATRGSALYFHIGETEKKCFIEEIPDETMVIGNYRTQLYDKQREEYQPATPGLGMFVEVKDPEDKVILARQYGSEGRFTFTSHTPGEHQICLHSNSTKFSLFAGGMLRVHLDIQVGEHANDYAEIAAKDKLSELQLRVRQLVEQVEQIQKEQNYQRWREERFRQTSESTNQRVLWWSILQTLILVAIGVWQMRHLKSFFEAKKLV
UniProt Q96A57: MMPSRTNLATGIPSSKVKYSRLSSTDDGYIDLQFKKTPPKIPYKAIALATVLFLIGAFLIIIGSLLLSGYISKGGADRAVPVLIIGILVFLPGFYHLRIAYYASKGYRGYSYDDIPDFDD

Key:
Assay in all cases: log2 fold change, soluble protein after heating vs DMSO (PISA); higher = thermal stabilisation; K562 cells, 10 uM, 30 min; active = over 0.2 and 3.5 SD of the protein, either way, in both replicates (recomputed)
[1] = compound: C1=CC=C(C=C1)[C@H](COC2=CC3=C(C=C2)NC(=O)N3)NC(=O)C4=CC=CN(C4=O)CC5=CC(=C(C=C5)F)F
Procedure, shortened: (§1)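 K562 cells at 2×10^6 cells/mL were given 10 μM compound for 30 min. Aliquots then went through 3 min of heating across 48°C-58°C, were pooled, and were extracted in PBS with 0.5% NP-40 at 4°C, and the supernatant after 21,000xg for 90 min was quantified by TMTpro 16plex LC-MS/MS with channel sums equalised. Thermal stability relative to control samples, from duplicates, is given as log2 fold change.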

[2] = compound: CC1=C(SC2=C1C(=N[C@H](C3=NN=C(N32)C)CC(=O)N)C4=CC=C(C=C4)Cl)C
Procedure, shortened: as §1

[3] = compound: CC1=C2C(=CC=C1)N=C(N(C2=O)C3=CC=CC=C3C)CN4C=NC5=C(N=CN=C54)N
Procedure, shortened: as §1

[4] = compound: Cc1sc2c(c1C)C(c1ccc(Cl)cc1)=N[C@@H](CC(=O)OC(C)(C)C)c1nnc(C)n1-2
Procedure, shortened: as §1

[5] = compound: c1ccc([C@@H]2C[C@H]2NC2CCNCC2)cc1
Procedure, shortened: as §1

Measured: log2 fold change

TMEM245 (UniProt Q9H330)
inactive: [1] 0.017 | [2] -0.038 | [3] -0.011 | [4] -0.011 | [5] 0.061

TMTC4 isoform 3 (UniProt Q5T4D3)
inactive: [1] 0.082

TMEM115 (UniProt Q12893)
inactive: [1] 0.014 | [2] 0.026 | [3] -0.038 | [4] 0.022 | [5] 0.009

TMEM134 (UniProt Q9H6X4)
inactive: [1] 0.037

TLN2 (UniProt Q9Y4G6)
inactive: [1] -0.005 | [2] 0.049 | [3] -0.026 | [4] 0.023 | [5] -0.017

TMEM259 (UniProt Q4ZIN3)
inactive: [1] 0.017 | [2] -0.005 | [3] 0.052 | [4] 0.015 | [5] 0.002

TMEM9 (UniProt Q9P0T7)
inactive: [1] 0.008 | [2] 0.02 | [3] -0.002 | [4] -0.027 | [5] -0.079

TMEM109 (UniProt Q9BVC6)
inactive: [1] 0.048 | [2] 0.019 | [3] 0.053 | [4] -0.096 | [5] -0.024

TMPPE (UniProt Q6ZT21)
inactive: [1] 0.074 | [2] 0.036 | [3] -0.001 | [4] -0.007 | [5] -0.038

TMEM223 (UniProt A0PJW6)
inactive: [1] 0.069 | [2] -0.045 | [3] 0.118 | [4] 0.03 | [5] -0.024

TLN1 (UniProt Q9Y490)
inactive: [1] -0.052 | [2] 0.052 | [3] 0.051 | [4] -0.015 | [5] -0.018

TMEM164 (UniProt Q5U3C3)
inactive: [1] -0.195 | [2] -0.047 | [3] 0.257 | [4] -0.22 | [5] 0.068

TMEM43 (UniProt Q9BTV4)
inactive: [1] 0.075 | [2] -0.039 | [3] -0.042 | [4] 0 | [5] -0.008

TMEM189-UBE2V1 (UniProt I3L0A0)
inactive: [1] -0.047 | [2] 0.02 | [3] 0.102 | [4] -0.02 | [5] 0.048

TLR9 isoform 4 (UniProt Q9NR96)
inactive: [1] -0.104 | [2] 0.052 | [3] 0.02 | [4] 0.114 | [5] -0.143

TMEM8A (UniProt Q9HCN3)
inactive: [1] 0.017 | [2] 0.038 | [3] -0.011 | [4] 0.038 | [5] 0.094

TMEM128 (UniProt Q5BJH2)
inactive: [1] -0.038 | [2] -0.001 | [3] 0.185 | [4] -0.1 | [5] 0

TNFAIP8 isoform 4 (UniProt O95379)
inactive: [1] -0.021 | [2] 0.026 | [3] 0.02 | [4] -0.042 | [5] -0.011

TMEM147 (UniProt Q9BVK8)
inactive: [1] -0.1 | [2] -0.031 | [3] -0.011 | [4] 0.087 | [5] 0.242

TMEM14C (UniProt Q9P0S9)
inactive: [1] 0.098 | [2] -0.028 | [3] 0.097 | [4] -0.064 | [5] 0.096

TMEM184C (UniProt Q9NVA4)
inactive: [1] 0 | [2] 0.078 | [3] 0.022 | [4] 0.045 | [5] 0.22

TMCC3 (UniProt Q9ULS5)
inactive: [1] -0.143

TMEM120A (UniProt Q9BXJ8)
inactive: [1] -0.126 | [2] 0.056 | [3] 0.012 | [4] -0.11 | [5] -0.049

TMX1 (UniProt Q9H3N1)
inactive: [1] 0.039 | [2] 0.003 | [3] 0.034 | [4] -0.024 | [5] -0.028

TMEM168 (UniProt Q9H0V1)
inactive: [1] 0.014 | [2] 0.066 | [3] -0.002 | [4] -0.128 | [5] 0.06

TMEM41B (UniProt Q5BJD5)
inactive: [1] -0.005 | [2] 0.022 | [3] 0.034 | [4] -0.16 | [5] 0.046

TMED1 (UniProt Q13445)
inactive: [1] -0.037 | [2] 0.05 | [3] 0.011 | [4] 0.066 | [5] -0.025

TM2D3 (UniProt Q9BRN9)
inactive: [1] -0.037 | [2] 0.066 | [3] -0.017 | [4] 0.013 | [5] 0.014

TMED10 (UniProt P49755)
inactive: [1] 0.035 | [2] 0.058 | [3] 0.015 | [4] -0.029 | [5] -0.021

TMEM177 (UniProt Q53S58)
inactive: [1] 0.036 | [2] -0.01 | [3] -0.164 | [4] -0.001 | [5] -0.002

TMEM106B (UniProt Q9NUM4)
inactive: [1] 0.039 | [2] -0.022 | [3] -0.008 | [4] -0.097 | [5] 0.034

TMPO (UniProt P42167)
inactive: [1] 0.003 | [2] 0.032 | [3] 0.003 | [4] -0.049 | [5] -0.015

TMEM65 (UniProt Q6PI78)
inactive: [1] -0.022 | [2] 0.133 | [3] 0.077 | [4] -0.144 | [5] -0.023

TMEM98 (UniProt Q9Y2Y6)
inactive: [1] -0.022

TMSB10 (UniProt P63313)
inactive: [1] 0.036 | [2] 0.002 | [3] 0.068 | [4] -0.035 | [5] -0.047

TMEM267 (UniProt Q0VDI3)
inactive: [1] 0.064 | [2] 0.173 | [3] 0.027 | [4] 0.217 | [5] -0.082

TM9SF1 (UniProt O15321)
inactive: [1] 0.169 | [2] 0.045 | [3] 0.103 | [4] -0.081 | [5] -0.05

TMEM208 (UniProt Q9BTX3)
inactive: [1] -0.101 | [2] 0.02 | [3] 0.088 | [4] -0.14 | [5] 0.031

TMED3 (UniProt Q9Y3Q3)
inactive: [1] 0.029 | [2] 0.04 | [3] 0.1 | [4] -0.043 | [5] 0.035

TMEM141 (UniProt Q96I45)
inactive: [1] 0.002 | [2] 0.01 | [3] 0.037 | [4] -0.094 | [5] 0.079

TMOD3 (UniProt Q9NYL9)
inactive: [1] -0.005 | [2] 0.059 | [3] 0.005 | [4] 0.052 | [5] -0.037

TMEM33 (UniProt P57088)
inactive: [1] 0.002 | [2] 0.057 | [3] 0.029 | [4] -0.05 | [5] 0.034

TMEM11 (UniProt P17152)
inactive: [1] 0.015 | [2] -0.011 | [3] 0.066 | [4] 0.007 | [5] -0.011

2 records drawn at random from the list so far, as already listed:
TMED3 (UniProt Q9Y3Q3)
inactive: [1] 0.029 | [2] 0.04 | [3] 0.1 | [4] -0.043 | [5] 0.035

TMOD3 (UniProt Q9NYL9)
inactive: [1] -0.005 | [2] 0.059 | [3] 0.005 | [4] 0.052 | [5] -0.037

(further entries)

TMEM205 (UniProt Q6UW68)
inactive: [1] -0.019 | [2] 0.197 | [3] -0.154 | [4] 0.072 | [5] -0.039

TMCO1 (UniProt Q9UM00)
inactive: [1] -0.112 | [2] 0.082 | [3] 0.017 | [4] 0.036 | [5] -0.018

TMEM97 (UniProt Q5BJF2)
inactive: [1] 0.06 | [2] 0.052 | [3] -0.018 | [4] 0.031 | [5] 0.028

TMEM219 (UniProt Q86XT9)
inactive: [1] 0.066 | [2] -0.023 | [3] -0.172 | [4] 0.016 | [5] -0.162

TMED9 (UniProt Q9BVK6)
inactive: [1] 0.012 | [2] 0.012 | [3] 0.025 | [4] -0.004 | [5] -0.02

TMEM230 isoform 2 (UniProt Q96A57)
inactive: [1] 0.008 | [2] -0.023 | [3] -0.129 | [4] 0.019 | [5] 0.012

TMC1 (UniProt Q8TDI8)
inactive: [1] -0.147 | [2] 0.095 | [3] 0.224 | [4] 0.05 | [5] 0.017

TMED2 (UniProt Q15363)
inactive: [1] 0.04 | [2] 0.027 | [3] -0.005 | [4] -0.024 | [5] 0.022

TMOD1 (UniProt P28289)
inactive: [1] -0.041 | [2] -0.036 | [3] 0.051 | [4] 0.036 | [5] 0.04

TMOD2 (UniProt Q9NZR1)
inactive: [1] -0.101 | [2] 0.12 | [3] -0.058 | [4] -0.087 | [5] -0.125

TLK2 isoform 2 (UniProt Q86UE8)
inactive: [1] 0.006 | [2] 0.021 | [3] 0.041 | [4] -0.007 | [5] 0.051

TMEM50A (UniProt O95807)
inactive: [1] 0.113 | [2] -0.409 | [3] -0.076 | [4] 0.073 | [5] 0.291
